# Measured data: PubChem BioAssay AID1259275 (Sanger Institute, 2017)
# Test: 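Kinome and custom colorectal gene library screened for lethal knock-downs and drug partners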 (primary screen)
# Cell system: COLO320HSR human colorectal cancer cells
# Knock-down reagent: siRNA pool against human genes
# Conditions: anchor drug added one day after transfection: BYL719 at 1 µM, cetuximab at 5 µg/ml or trametinib at 10 nM; DMSO as vehicle arm
# Detection: 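Replicate-mean viability versus non-targeting pool control, robust z-score without drug, and per-drug synergy scores for BYL719 at 1 µM, cetuximab at 5 µg/ml and trametinib at 10 nM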
# Direction: robust z-score, siRNA alone: higher = more viable cells; strongly negative means essential; viability, knock-down alone (DMSO): higher = more viable cells; synergy score with BYL719 and synergy score with cetuximab and synergy score with trametinib: higher = stronger combined killing with drug
# Hit rule: 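a gene is called essential when its robust z-score without drug falls below -3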
# Calls: active = essential (siRNA alone); inactive = no change (siRNA alone)
# Shown is an unselected part of 794 reagents. 13 of them (1.6%) count as active. 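Calls mark knock-downs lethal by themselves, not drug synergy; drugs went in a day after transfection, with DMSO as vehicle.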 Unmarked entries are inactive. No viability above 1 is reported: the scale is capped. Not given: the amount of reagent, the time to read-out.
target gene,"robust z-score, siRNA alone","viability, knock-down alone (DMSO) (fraction of control)",synergy score with BYL719,synergy score with cetuximab,synergy score with trametinib
NRBP2 (nuclear receptor binding protein 2),0.726,1,-0.078,0.0227,-0.0259
CDKN1C (cyclin dependent kinase inhibitor 1C),0.726,1,-0.213,-0.0893,-0.0259
MYO3B (myosin IIIB),0.726,1,-0.152,0.0858,-0.0183
CERT1 (ceramide transporter 1),0.726,1,-0.0967,-0.0691,-0.0259
PIP5KL1 (phosphatidylinositol-4-phosphate 5-kinase like 1),0.342,0.965,-0.0808,-0.0486,-0.0597
IDH2 (isocitrate dehydrogenase (NADP(+)) 2),0.726,1,0.03,-0.0627,0.14
TYRO3 (TYRO3 protein tyrosine kinase),0.611,0.99,-0.0615,-0.0393,0.0279
TEC (tec protein tyrosine kinase),-0.0346,0.931,-0.142,-0.0667,-0.0473
ADGRL2 (adhesion G protein-coupled receptor L2),0.726,1,-0.204,-0.0893,-0.0259
RIPK4 (receptor interacting serine/threonine kinase 4),-0.116,0.924,-0.196,-0.12,-0.0147
PIP4K2C (phosphatidylinositol-5-phosphate 4-kinase type 2 gamma),0.429,0.973,0.0127,-0.0914,0.0914
ADCK2 (aarF domain containing kinase 2),-0.656,0.875,-0.104,-0.203,0.055
CAMK1G (calcium/calmodulin dependent protein kinase IG),0.726,1,0.0916,0.00683,-0.0259
BRD4 (bromodomain containing 4),-2.41,0.717,0.0361,-0.0603,-0.0203
PRKAG3 (protein kinase AMP-activated non-catalytic subunit gamma 3),-1.04,0.84,-0.00286,-0.0479,0.0482
MAPK6 (mitogen-activated protein kinase 6),-0.282,0.909,-0.0544,-0.0894,0.0471
PRKACB (protein kinase cAMP-activated catalytic subunit beta),0.726,1,-0.296,-0.0893,-0.0259
PIP4K2A (phosphatidylinositol-5-phosphate 4-kinase type 2 alpha),0.726,1,-0.184,-0.0873,-0.0259
CDK17 (cyclin dependent kinase 17),0.726,1,-0.086,-0.0893,-0.0259
CDK2 (cyclin dependent kinase 2),0.726,1,-0.218,-0.0893,-0.0259
MED12 (mediator complex subunit 12),-1.97,0.757,-0.0962,-0.205,-0.137
NME2 (NME/NM23 nucleoside diphosphate kinase 2),0.726,1,-0.167,-0.0893,-0.0259
TAF1L (TATA-box binding protein associated factor 1 like),0.726,1,-0.184,-0.0589,-0.0165
ALK (ALK receptor tyrosine kinase),0.726,1,-0.168,-0.0893,-0.0259
BRWD1 (bromodomain and WD repeat domain containing 1),-1.43,0.805,-0.104,-0.19,-0.204
EPHB6 (EPH receptor B6),0.726,1,-0.106,-0.0893,-0.0259
KALRN (kalirin RhoGEF kinase),0.726,1,-0.269,-0.0893,-0.0259
ROR2 (ROR family WNT receptor 2),0.726,1,-0.12,-0.0893,-0.0259

Laid out differently: results already given.
target gene	robust z-score, siRNA alone	viability, knock-down alone (DMSO) (fraction of control)	synergy score with BYL719	synergy score with cetuximab	synergy score with trametinib
ADGRL2 (adhesion G protein-coupled receptor L2)	0.726	1	-0.204	-0.0893	-0.0259
RIPK4 (receptor interacting serine/threonine kinase 4)	-0.116	0.924	-0.196	-0.12	-0.0147
PIP4K2C (phosphatidylinositol-5-phosphate 4-kinase type 2 gamma)	0.429	0.973	0.0127	-0.0914	0.0914
ADCK2 (aarF domain containing kinase 2)	-0.656	0.875	-0.104	-0.203	0.055
CAMK1G (calcium/calmodulin dependent protein kinase IG)	0.726	1	0.0916	0.00683	-0.0259
BRD4 (bromodomain containing 4)	-2.41	0.717	0.0361	-0.0603	-0.0203
PRKAG3 (protein kinase AMP-activated non-catalytic subunit gamma 3)	-1.04	0.84	-0.00286	-0.0479	0.0482

Continued:
target gene,"robust z-score, siRNA alone","viability, knock-down alone (DMSO) (fraction of control)",synergy score with BYL719,synergy score with cetuximab,synergy score with trametinib
CSNK2B (casein kinase 2 beta),0.726,1,0.00529,-0.0778,-0.0259
PDK1 (pyruvate dehydrogenase kinase 1),0.0964,0.943,-0.0668,-0.141,0.0098
PRKACA (protein kinase cAMP-activated catalytic subunit alpha),0.726,1,-0.00996,-0.0893,-0.0259
SGK1 (serum/glucocorticoid regulated kinase 1),-0.0138,0.933,-0.222,-0.0405,-0.091
CAMK2D (calcium/calmodulin dependent protein kinase II delta),0.726,1,-0.112,-0.0893,-0.0259
CUL1 (cullin 1),-0.117,0.924,-0.249,-0.11,-0.1
CALM3 (calmodulin 3),-0.617,0.879,-0.151,-0.0321,-0.144
FASTK (Fas activated serine/threonine kinase),-1.39,0.809,-0.157,-0.227,-0.202
NTRK2 (neurotrophic receptor tyrosine kinase 2),-0.0434,0.931,-0.292,-0.153,-0.0936
CLK1 (CDC like kinase 1),0.0668,0.94,-0.177,-0.144,-0.0839
STK32B (serine/threonine kinase 32B),-0.77,0.865,-0.0676,-0.161,-0.00462
TRIM27 (tripartite motif containing 27),0.236,0.956,-0.0626,-0.13,-0.0441
"ABL2 (ABL proto-oncogene 2, non-receptor tyrosine kinase)",0.726,1,-0.146,-0.0893,-0.0259
NEK8 (NIMA related kinase 8),-0.0321,0.932,0.0118,-0.0395,-0.0926
TSSK3 (testis specific serine kinase 3),0.0743,0.941,-0.127,-0.138,0.0197
PI4K2B (phosphatidylinositol 4-kinase type 2 beta),-0.568,0.883,-0.118,0.0305,0.16
SRPK1 (SRSF protein kinase 1),-1,0.844,-0.17,-0.174,-0.0718
SIK2 (salt inducible kinase 2),-0.273,0.91,-0.0756,-0.133,-0.114
CAMK2B (calcium/calmodulin dependent protein kinase II beta),-0.666,0.874,-0.0562,-0.0561,-0.00989
NTRK1 (neurotrophic receptor tyrosine kinase 1),0.726,1,-0.0851,-0.0893,-0.0259
PCK1 (phosphoenolpyruvate carboxykinase 1),0.726,1,0.0192,0.0475,-0.0259
CDK19 (cyclin dependent kinase 19),0.454,0.975,-0.03,-0.0281,-0.0273
PSKH2 (protein serine kinase H2),0.726,1,-0.0805,-0.0893,-0.0259
TPD52L3 (TPD52 like 3),0.726,1,-0.132,-0.0893,-0.00641
PRKCG (protein kinase C gamma),0.726,1,-0.0142,-0.0328,-0.0259
"FYN (FYN proto-oncogene, Src family tyrosine kinase)",0.726,1,-0.118,-0.0893,0.0218
"KRAS (KRas proto-oncogene, GTPase)",0.493,0.979,-0.131,-0.108,-0.0464
RIOK1 (RIO kinase 1),-1.33,0.814,-0.1,-0.118,-0.0885
NR4A2 (nuclear receptor subfamily 4 group A member 2),0.347,0.966,-0.0791,-0.121,0.126
ERN2 (endoplasmic reticulum to nucleus signaling 2),0.199,0.952,-0.0152,-0.126,-0.0723
SCYL1 (SCY1 like pseudokinase 1),0.726,1,-0.105,-0.0893,-0.0259
MARK3 (microtubule affinity regulating kinase 3),0.726,1,-0.0891,-0.0893,-0.0259
PRKCI (protein kinase C iota),-0.386,0.9,-0.057,-0.00052,-0.0688
RTN4 (reticulon 4),0.726,1,-0.257,-0.0893,-0.0259
"CRKL (CRK like proto-oncogene, adaptor protein)",0.726,1,-0.0668,-0.0726,-0.0259
